In PMC11157767 (Molecular Cancer, 2024):
The source gives many values for each of these; only a part stands here.

Tested on: TFG-MET allograft tumors
Assay: RNA-sequencing, differential expression and GSEA of TFG-MET allograft tumors
Type: in vivo, mouse
Conditions: CAP.v.Veh
Experimental: Error bars display standard error of mean, statistical significance was determined using t-test analysis. (****;p<0.0001, ***;p<0.001, **;p<0.01, *;p<0.05). […] Each dot represents an individual replicate. Error bars display standard error of the mean.
Each dot represents one gene.

[1] = GOCC_ACTIN_BASED_CELL_PROJECTION
[2] = GOCC_AMPA_GLUTAMATE_RECEPTOR_COMPLEX
[3] = GOCC_ANAPHASE_PROMOTING_COMPLEX
[4] = GOCC_ANCHORED_COMPONENT_OF_EXTERNAL_SIDE_OF_PLASMA_MEMBRANE
[5] = GOCC_ANCHORED_COMPONENT_OF_PLASMA_MEMBRANE
[6] = GOCC_APICOLATERAL_PLASMA_MEMBRANE
[7] = GOCC_BASOLATERAL_PLASMA_MEMBRANE
[8] = GOCC_CARBOXY_TERMINAL_DOMAIN_PROTEIN_KINASE_COMPLEX

In the case of `CNC(=O)c1ccc(-c2cnc3ncc(Cc4ccc5ncccc5c4)n3n2)cc1F` [Capmatinib], the ES (GOCC_ACROSOMAL_MEMBRANE) is reported as -0.4656, the NES (GOCC_ACROSOMAL_MEMBRANE) is reported as -1.298 and the ES (GOCC_ACROSOMAL_VESICLE) is reported as 0.2508. The NES (GOCC_ACROSOMAL_VESICLE) was 1.196, the ES [1] was -0.2482 and the NES [1] was -1.099. The ES (GOCC_ACTIN_CYTOSKELETON) was -0.2142, the NES (GOCC_ACTIN_CYTOSKELETON) was -1.015 and the ES (GOCC_ACTIN_FILAMENT) was -0.3022. It also gave an NES (GOCC_ACTIN_FILAMENT) of -1.254, an ES (GOCC_ACTIN_FILAMENT_BUNDLE) of -0.3261 and an NES (GOCC_ACTIN_FILAMENT_BUNDLE) of -1.244. It also gave an ES (GOCC_ACTOMYOSIN) of -0.3244, an NES (GOCC_ACTOMYOSIN) of -1.241 and an ES (GOCC_ADHERENS_JUNCTION) of -0.2581. It also gave an NES (GOCC_ADHERENS_JUNCTION) of -1.126, an ES (GOCC_AGGRESOME) of -0.2349 and an NES (GOCC_AGGRESOME) of -0.7784. It also gave an ES [2] of -0.3086, an NES [2] of -0.9733 and an ES [3] of -0.295. For the same molecule, the NES [3] was -0.8864, the ES [4] was 0.3873 and the NES [4] was 1.216. It also gave an ES [5] of 0.2561, an NES [5] of 1.138 and an ES (GOCC_ANCHORING_JUNCTION) of -0.2092. For the same molecule, the NES (GOCC_ANCHORING_JUNCTION) was -1.012, the ES (GOCC_APICAL_DENDRITE) was 0.2719 and the NES (GOCC_APICAL_DENDRITE) was 0.9188. It also gave an ES (GOCC_APICAL_JUNCTION_COMPLEX) of -0.2633, an NES (GOCC_APICAL_JUNCTION_COMPLEX) of -1.112 and an NES (GOCC_APICAL_PART_OF_CELL) of -1.058. The ES (GOCC_APICAL_PLASMA_MEMBRANE) was -0.2102, the NES (GOCC_APICAL_PLASMA_MEMBRANE) was -0.9645 and the ES [6] was 0.3169. The NES [6] was 1.031, the ES (GOCC_ASTROCYTE_PROJECTION) was -0.3925 and the NES (GOCC_ASTROCYTE_PROJECTION) was -1.114. It also gave an ES (GOCC_AXON) of 0.1438, an NES (GOCC_AXON) of 0.9135 and an ES (GOCC_AXONAL_GROWTH_CONE) of -0.3404. It also gave an NES (GOCC_AXONAL_GROWTH_CONE) of -1.093, an ES (GOCC_AXONEMAL_DYNEIN_COMPLEX) of 0.3859 and an NES (GOCC_AXONEMAL_DYNEIN_COMPLEX) of 1.304. The ES (GOCC_AXON_CYTOPLASM) was 0.2547, the NES (GOCC_AXON_CYTOPLASM) was 1.164 and the ES (GOCC_AXON_INITIAL_SEGMENT) was 0.4283. It also gave an NES (GOCC_AXON_INITIAL_SEGMENT) of 1.345, an ES (GOCC_A_BAND) of 0.25 and an NES (GOCC_A_BAND) of 0.9628. The ES (GOCC_BASAL_PART_OF_CELL) was -0.1821, the NES (GOCC_BASAL_PART_OF_CELL) was -0.8247 and the ES (GOCC_BASEMENT_MEMBRANE) was -0.254. The NES (GOCC_BASEMENT_MEMBRANE) was -1.016, the ES [7] was -0.1689 and the NES [7] was -0.748. The ES (GOCC_BRUSH_BORDER) was -0.2399, the NES (GOCC_BRUSH_BORDER) was -0.9517 and the ES (GOCC_BRUSH_BORDER_MEMBRANE) was -0.2961. The NES (GOCC_BRUSH_BORDER_MEMBRANE) was -1.077, the ES (GOCC_CALCIUM_CHANNEL_COMPLEX) was 0.2463 and the NES (GOCC_CALCIUM_CHANNEL_COMPLEX) was 1.14. It also gave an ES [8] of -0.4463, an NES [8] of -1.3142 and an ES (GOCC_CATENIN_COMPLEX) of -0.2945. For the same molecule, the NES (GOCC_CATENIN_COMPLEX) was -0.976, the ES (GOCC_CAVEOLA) was -0.3204 and the NES (GOCC_CAVEOLA) was -1.246. For the same molecule, the ES (GOCC_CELL_CELL_JUNCTION) was -0.2145, the NES (GOCC_CELL_CELL_JUNCTION) was -1.0148 and the ES (GOCC_CELL_CORTEX) was -0.1978. It also gave an NES (GOCC_CELL_CORTEX) of -0.9024, an ES (GOCC_CELL_LEADING_EDGE) of -0.2171 and an NES (GOCC_CELL_LEADING_EDGE) of -1.019. It also gave an ES (GOCC_CELL_PROJECTION_MEMBRANE) of -0.2083, an NES (GOCC_CELL_PROJECTION_MEMBRANE) of -0.9603 and an ES (GOCC_CELL_SUBSTRATE_JUNCTION) of -0.2431. It also gave an NES (GOCC_CELL_SUBSTRATE_JUNCTION) of -1.147 and an ES (GOCC_CENTRIOLE) of -0.2881.
